Measurements as given in PMC7320039.
Results are given in words; binding and its absence hold for the method and conditions named. In cells and extracts the contact can be indirect. These calls come from enrichment with a bait or labelling near it, and not all partners need be listed.

Amino acid sequences for entries named in this document (tags omitted). Residues count along the entry.
UniProt P46531, residues 19-2555: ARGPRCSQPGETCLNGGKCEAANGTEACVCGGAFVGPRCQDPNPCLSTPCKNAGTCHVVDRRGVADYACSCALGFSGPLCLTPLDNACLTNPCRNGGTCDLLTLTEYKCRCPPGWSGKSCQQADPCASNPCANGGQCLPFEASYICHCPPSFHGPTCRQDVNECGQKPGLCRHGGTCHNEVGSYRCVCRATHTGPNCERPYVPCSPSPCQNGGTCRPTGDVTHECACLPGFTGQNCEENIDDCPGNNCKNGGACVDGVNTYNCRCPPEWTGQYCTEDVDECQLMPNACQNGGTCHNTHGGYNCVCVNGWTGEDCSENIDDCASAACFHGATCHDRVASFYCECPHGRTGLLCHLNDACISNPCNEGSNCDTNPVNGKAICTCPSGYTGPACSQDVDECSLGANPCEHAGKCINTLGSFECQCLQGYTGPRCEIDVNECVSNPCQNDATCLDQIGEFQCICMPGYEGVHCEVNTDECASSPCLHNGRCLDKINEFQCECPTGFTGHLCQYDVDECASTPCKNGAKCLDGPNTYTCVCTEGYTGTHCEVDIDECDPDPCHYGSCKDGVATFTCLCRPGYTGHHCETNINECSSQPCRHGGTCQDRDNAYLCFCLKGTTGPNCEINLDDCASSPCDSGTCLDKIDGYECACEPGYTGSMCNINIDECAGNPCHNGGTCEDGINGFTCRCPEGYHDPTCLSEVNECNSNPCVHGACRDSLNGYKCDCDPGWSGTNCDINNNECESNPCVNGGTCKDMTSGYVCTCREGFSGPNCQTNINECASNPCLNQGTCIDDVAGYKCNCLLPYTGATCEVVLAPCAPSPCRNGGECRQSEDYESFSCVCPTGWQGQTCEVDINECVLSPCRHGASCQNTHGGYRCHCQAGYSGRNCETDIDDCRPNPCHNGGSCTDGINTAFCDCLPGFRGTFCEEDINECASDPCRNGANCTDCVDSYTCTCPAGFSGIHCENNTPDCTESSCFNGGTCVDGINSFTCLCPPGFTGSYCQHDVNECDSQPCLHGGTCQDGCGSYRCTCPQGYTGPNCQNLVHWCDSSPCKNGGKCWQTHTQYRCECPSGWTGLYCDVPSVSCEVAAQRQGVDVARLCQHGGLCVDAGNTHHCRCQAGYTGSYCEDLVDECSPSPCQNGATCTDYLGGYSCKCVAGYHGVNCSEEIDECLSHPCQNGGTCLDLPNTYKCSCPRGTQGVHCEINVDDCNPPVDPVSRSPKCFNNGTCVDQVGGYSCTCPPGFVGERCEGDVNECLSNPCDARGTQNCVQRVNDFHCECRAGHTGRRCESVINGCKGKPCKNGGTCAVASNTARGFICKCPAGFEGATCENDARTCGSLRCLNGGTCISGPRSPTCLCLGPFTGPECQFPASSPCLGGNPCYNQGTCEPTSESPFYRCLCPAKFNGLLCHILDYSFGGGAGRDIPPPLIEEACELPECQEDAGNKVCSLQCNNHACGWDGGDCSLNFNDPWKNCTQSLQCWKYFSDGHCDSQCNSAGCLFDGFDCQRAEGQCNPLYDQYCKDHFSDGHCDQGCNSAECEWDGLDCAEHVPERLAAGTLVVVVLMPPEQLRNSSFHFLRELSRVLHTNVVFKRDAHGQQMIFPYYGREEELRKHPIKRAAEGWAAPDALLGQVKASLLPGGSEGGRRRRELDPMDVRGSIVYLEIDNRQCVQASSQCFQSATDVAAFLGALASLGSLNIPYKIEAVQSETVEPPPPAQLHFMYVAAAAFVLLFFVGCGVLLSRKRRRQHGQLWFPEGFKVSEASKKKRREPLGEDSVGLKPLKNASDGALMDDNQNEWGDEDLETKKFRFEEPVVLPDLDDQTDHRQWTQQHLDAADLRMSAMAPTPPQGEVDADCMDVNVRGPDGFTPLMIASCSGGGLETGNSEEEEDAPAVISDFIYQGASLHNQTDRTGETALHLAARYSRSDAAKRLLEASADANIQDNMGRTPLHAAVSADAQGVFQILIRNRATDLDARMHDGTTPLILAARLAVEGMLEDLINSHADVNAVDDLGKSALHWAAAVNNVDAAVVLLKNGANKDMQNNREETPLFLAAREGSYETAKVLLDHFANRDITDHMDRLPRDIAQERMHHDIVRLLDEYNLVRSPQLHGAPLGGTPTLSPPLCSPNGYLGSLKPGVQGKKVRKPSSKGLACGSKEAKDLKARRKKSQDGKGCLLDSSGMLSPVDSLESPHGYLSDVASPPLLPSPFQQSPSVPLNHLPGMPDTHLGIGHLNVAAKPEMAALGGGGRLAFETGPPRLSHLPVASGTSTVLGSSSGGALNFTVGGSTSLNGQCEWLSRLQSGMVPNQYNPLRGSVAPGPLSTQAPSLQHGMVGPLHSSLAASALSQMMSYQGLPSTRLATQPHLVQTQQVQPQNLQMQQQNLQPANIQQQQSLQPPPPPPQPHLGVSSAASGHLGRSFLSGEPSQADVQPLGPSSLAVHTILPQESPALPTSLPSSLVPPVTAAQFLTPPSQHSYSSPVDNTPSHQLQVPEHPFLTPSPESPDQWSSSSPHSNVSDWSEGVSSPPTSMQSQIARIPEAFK

Biological target: T1, DYRK2 (bait of the immunoprecipitation followed by mass spectrometry) (human) (UniProt Q92630)
T1 sequence: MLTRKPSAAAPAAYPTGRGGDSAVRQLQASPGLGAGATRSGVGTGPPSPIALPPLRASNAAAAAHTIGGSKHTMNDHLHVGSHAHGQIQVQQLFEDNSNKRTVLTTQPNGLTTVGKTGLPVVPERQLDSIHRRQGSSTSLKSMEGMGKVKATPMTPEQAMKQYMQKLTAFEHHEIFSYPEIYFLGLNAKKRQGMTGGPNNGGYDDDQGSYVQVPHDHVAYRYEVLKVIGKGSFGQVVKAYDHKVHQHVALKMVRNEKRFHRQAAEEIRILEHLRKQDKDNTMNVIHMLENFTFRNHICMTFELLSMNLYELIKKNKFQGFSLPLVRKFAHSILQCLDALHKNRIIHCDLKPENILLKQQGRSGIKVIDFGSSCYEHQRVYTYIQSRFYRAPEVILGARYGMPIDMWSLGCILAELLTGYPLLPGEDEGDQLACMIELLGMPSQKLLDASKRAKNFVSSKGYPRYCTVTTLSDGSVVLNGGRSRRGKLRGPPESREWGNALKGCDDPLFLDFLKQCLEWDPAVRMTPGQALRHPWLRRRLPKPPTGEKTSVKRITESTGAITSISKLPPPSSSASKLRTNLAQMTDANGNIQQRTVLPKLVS
Assay: affinity purification with mass spectrometry; immunoprecipitation of DYRK2 followed by mass spectrometry; details in Supplementary Materials and methods

binding: binds
Substance: NOTCH1 (hit of the DYRK2 immunoprecipitation with mass spectrometry) (from UniProt P46531 19-2555) (receptor)
